From PubChem BioAssay record AID1053133 (Broad Institute, 2014).

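Plate-reader measure of the Venus reporter marking one vaccinia stage in infected cells (the cell line is not named here); read time unknown. The test concentration is not given here. Percent change in Venus reporter signal; lower (more negative) values mean stronger inhibition of that viral stage.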

Values are in %. The controls that fix the scale are not given here. Common to all entries: measured here: Venus reporter, other viral stage. This is a side read-out of the assay, for part of the compounds, not drawn at random.

structure,activity change (Venus) (%)
C[C@@H]1CN([C@H](C)CO)S(=O)(=O)c2ccc(/C=C/c3ccccc3)cc2O[C@H]1CN(C)C(=O)Nc1cccc(F)c1,-68.26
O=C(c1ccccc1F)N1CC(=O)N2[C@H](C1)[C@H](c1ccc(C#Cc3ccc(F)cc3)cc1)[C@@H]2CO,-68.69
C[C@@H]1CN([C@@H](C)CO)C(=O)c2ccccc2-c2ccccc2CO[C@@H]1CN(C)Cc1ccc2c(c1)OCO2,-28.14
C/C=C/c1ccc([C@H]2[C@@H](CO)N(CC3CCCC3)C23CN(C(=O)CC2CC2)C3)cc1,-21.26
CO[C@H]1O[C@H](CO)[C@@H](OC(=O)Nc2ccc(C(F)(F)F)cc2)[C@H](OC(=O)Nc2ccc3c(c2)OCO3)[C@H]1OC(=O)Nc1ccc2c(c1)OCO2,-33.35
C[C@H](CO)N1C[C@H](C)[C@@H](CN(C)S(=O)(=O)c2ccccc2)Oc2ncc(C#CC3CCCCC3)cc2C1=O,-27.27
C[C@@H]1CN([C@@H](C)CO)C(=O)c2cc(NC(=O)Nc3ccc(F)cc3)ccc2O[C@@H]1CN(C)Cc1ccc(-c2ccccc2)cc1,-38.25
Cc1noc(C)c1S(=O)(=O)Nc1ccc2c(c1)C(=O)N([C@@H](C)CO)C[C@@H](C)[C@@H](CN(C)CC1CCCCC1)OCCCC[C@H](C)O2,-31.22
CO[C@@H]1CN(C)C(=O)c2cc(NS(=O)(=O)c3ccc(-c4ccccc4)cc3)ccc2OC[C@H](C)NC[C@H]1C,-34.91
COc1ccc(NC(=O)O[C@H]2[C@H](OC(=O)Nc3ccccc3)[C@H](OC(=O)Nc3ccccc3)[C@@H](OC)O[C@@H]2CO)cc1,-29.94
COc1ccc(NC(=O)N(C)C[C@@H]2OCc3ccccc3-c3c(n(C)c4ccccc34)C(=O)N([C@@H](C)CO)C[C@@H]2C)cc1,-35.44
CO[C@@H]1CN(C)C(=O)c2cc(NC(=O)Nc3ccc(C(F)(F)F)cc3)ccc2OC[C@H](C)NC[C@H]1C,-62.96
COc1ccc(CN(C)C[C@@H]2Oc3ccc(NC(=O)NC4CCCCC4)cc3CC(=O)N([C@@H](C)CO)C[C@H]2C)cc1,-36.76
Cc1ccccc1-c1cnc2c(c1)C(=O)N([C@@H](C)CO)C[C@@H](C)[C@H](CN(C)Cc1ccccc1F)O2,-31.23
C[C@@H]1CN([C@@H](C)CO)C(=O)c2cc(NS(=O)(=O)c3ccc(F)cc3)ccc2O[C@@H](C)CCCCO[C@H]1CN(C)Cc1ccc2c(c1)OCO2,-33.55
Cc1ccc(S(=O)(=O)N(C)C[C@@H]2Oc3ncc(C#Cc4cccc(F)c4)cc3C(=O)N([C@H](C)CO)C[C@@H]2C)cc1,-53.56
C[C@@H]1CN([C@H](C)CO)S(=O)(=O)c2ccc(C#CC3CC3)cc2O[C@@H]1CN(C)Cc1ccccc1,-40.01
C[C@@H]1CN([C@@H](C)CO)C(=O)c2cc(NC(=O)Nc3ccccc3)ccc2O[C@@H](C)CCCCO[C@@H]1CN(C)Cc1ccccc1,-35.47
C[C@@H]1CN([C@@H](C)CO)C(=O)Cc2cc(NS(=O)(=O)c3cccs3)ccc2O[C@H]1CN(C)Cc1ccccc1,-30.8
C[C@@H]1CCCCO[C@H](CN(C)C(=O)C2CCCCC2)[C@H](C)CN([C@H](C)CO)C(=O)c2cc(NS(=O)(=O)c3ccccc3)ccc2O1,-55.05
COc1cccc(CN(C)C[C@@H]2OCc3ccccc3-c3c(n(C)c4ccccc34)C(=O)N([C@H](C)CO)C[C@H]2C)c1,-73.16
C[C@H]1CN([C@@H](C)CO)S(=O)(=O)c2ccc(C#CCC3CCCC3)cc2O[C@@H]1CN(C)C(=O)c1ccccn1,-57.1
CCC(=O)N(C)C[C@@H]1Oc2cc(C#CC3CCCCC3)ccc2S(=O)(=O)N([C@@H](C)CO)C[C@@H]1C,-34.21
CCC(=O)N1CCCCN2[C@H](CO)[C@H](c3ccc(C#Cc4ccccc4)cc3)[C@H]2C1,-35.77
Cc1ccc(S(=O)(=O)Nc2ccc3c(c2)C(=O)N([C@@H](C)CO)C[C@@H](C)[C@@H](CN(C)CC2CCCCC2)OCCCC[C@H](C)O3)cc1,-53.11
COc1ccccc1CN1CC[C@@H]2[C@H]1c1cc(-c3ccc(C(=O)N(C)C)cc3)ccc1N[C@@H]2CO,-19.44
COc1ccc(C#Cc2ccc([C@H]3[C@@H](CO)N4CCCCN(Cc5ccncc5)C[C@H]34)cc2)cc1,-36.14
O=C(C1CCCC1)N1CC(=O)N2[C@H](CO)[C@@H](c3ccc(C#CC4CCCC4)cc3)[C@@H]2C1,-33.66
O=C(c1ccc2c(c1)OCO2)N1CC(=O)N2[C@H](CO)[C@H](c3ccc(C#Cc4ccccc4)cc3)[C@H]2C1,-73.8
C=CCN1C(=O)[C@@]2(O[C@@H](CCO)[C@H]([Si](C)(C)c3ccc(OC)cc3)[C@H]2C)c2cc(NC(C)=O)ccc21,-53.76
COc1ccc(S(=O)(=O)Nc2ccc3c(c2)C(=O)N([C@H](C)CO)C[C@H](C)[C@@H](CN(C)S(=O)(=O)c2cccs2)OCCCC[C@H](C)O3)cc1,-42.42
O=C(C[C@@H]1CC[C@@H]2[C@H](COC[C@H](O)CN2Cc2cc(F)ccc2F)O1)N[C@@H]1CCN(Cc2ccccc2)C1,-31.47
CCCC#Cc1ccc2c(c1)O[C@H](CN(C)CCC)[C@@H](C)CN([C@H](C)CO)S2(=O)=O,-23.67
CCCNC(=O)N1[C@H](C#N)[C@H](c2ccc(-c3ccc(C(=O)N(C)C)cc3)cc2)[C@@H]1CO,-48.95
CC(C)CC#Cc1ccc2c(c1)O[C@H](CN(C)C(=O)CC1CC1)[C@H](C)CN([C@H](C)CO)S2(=O)=O,-33.34
COc1ccc(NC(=O)N2CCCCN3[C@@H](CO)[C@@H](c4ccc(C#Cc5ccccc5)cc4)[C@@H]3C2)cc1,-82.84
Cc1ccc(S(=O)(=O)Nc2ccc3c(c2)C(=O)N([C@@H](C)CO)C[C@H](C)[C@@H](CN(C)C(=O)Nc2ccccc2)OCCCC[C@@H](C)O3)cc1,-48.67
COC(=O)[C@@]1(Cc2ccccc2)N=C(c2ccc(OCCCO)cc2)O[C@H]1c1ccccc1CN=[N+]=[N-],-82.21

The first 4 entries again:

* C[C@@H]1CN([C@H](C)CO)S(=O)(=O)c2ccc(/C=C/c3ccccc3)cc2O[C@H]1CN(C)C(=O)Nc1cccc(F)c1 : activity change (Venus) -68.26%
* O=C(c1ccccc1F)N1CC(=O)N2[C@H](C1)[C@H](c1ccc(C#Cc3ccc(F)cc3)cc1)[C@@H]2CO : activity change (Venus) -68.69%
* C[C@@H]1CN([C@@H](C)CO)C(=O)c2ccccc2-c2ccccc2CO[C@@H]1CN(C)Cc1ccc2c(c1)OCO2 : activity change (Venus) -28.14%
* C/C=C/c1ccc([C@H]2[C@@H](CO)N(CC3CCCC3)C23CN(C(=O)CC2CC2)C3)cc1 : activity change (Venus) -21.26%